Assay [1] concerns mitochondrial apoptosis-induced channel (MAC). Kind of assay: Patch clamp of MAC in proteoliposomes containing mitochondrial outer membranes of apoptotic FL5.12 cells. In kind it is biochemical, mouse. The settings on record: 150 mM KCl 5 mM HEPES pH 7.4, read-out: IC50 for blockade of MAC (inhibition of conductance). The protocol: Hematopoietic FL5.12 cells are a mouse leukemia cell line that enters apoptosis after withdrawal of the growth factor interleukin-3 (IL-3) (Gross, A., Jockel, […]. and Korsmeyer, S. J. (1998). Parental FL5.12 cells were cultured as previously described (Gross, A., Jockel, […]. and Korsmeyer, S. J. (1998) EMBO J. 17, 3878-85) in Iscove's Modified Eagle Media (IMEM), 10% Fetal Bovine Serum, 10% WEHI-3B supplement (filtered supernatant of WEHI-3B cells secreting IL-3). Cultures were kept below 1.5 million cells/ml. Cells were washed three times in media without IL-3 (WEHI supplement) to induce apoptosis twelve hours prior to the isolation of mitochondria (Zamzami, N., Susin, […]., Gomez-Monterrey, I., Castedo, M. and Kroemer, G. (1996). Mitochondrial control of nuclear apoptosis. Journal of Experimental Medicine. 183, 1533-44; Mootha, V., Wei, M., Buttle, K., Scorrano, L., Panoutsakopoulou, […]. and Korsmeyer, S. (2001). A reversible component of mitochondrial respiratory dysfunction in apoptosis can be rescued by exogenous cytochrome c. […]
For orientation: In patch-clamp work, channel activity is measured electrically.

Assay [2] deals with MCC. The note with it: read-out: IC50 for block of MCC; cited from earlier work.

Drawing on patent US20050267128A1, “Compounds, compositions and methods of modulating the mitochondrial apoptosis-induced channel (MAC)” (priority 2004, published 2005), this text covers IC50 for 1 molecule.

Where “and” joins values, the source holds several entries; their conditions need not be identical. Equal values may be shown once.

`CC(C)NCC(O)COc1cccc2ccccc12` (centres unmarked) [propranolol]: the IC50 in assay [1] was 52 µM and ~50 µM; in assay [2], around 700 µM.

Usually IC50 stands for the concentration that gives 50% inhibition.
